# Measurements as given in the supplement of paper PMC8256030.
# Several values for one entry are separate records, joined by “and”; a condition that tells them apart may be missing. Equal values may be shown once. Where a name gives a salt, the structure may show the parent alone. The list shows a part of the results. Single values are uncertain here, since repeats match poorly.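 HEK293T cells were given each compound shortly before transfection with a reporter in which red mCherry is followed by the SARS-CoV-2 frameshift element and then GFP in the −1 frame, so GFP appears only after frameshifting.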
# Tested on: HEK293T
# Experiment: percent viability (nuclei count) relative to control; higher = more viable cells
# Details: 10 µM; 24 h
row,Structure (SMILES),percent viability
1,O=P(O)(O)C(Sc1ccc(Cl)cc1)P(=O)(O)O [tiludronic acid],320%
2,COc1cc2c3cc1Oc1cc(ccc1O)C[C@@H]1c4c(cc(OC)c(O)c4Oc4ccc(cc4)C[C@@H]3N(C)CC2)CC[N+]1(C)C [(+)-Tubocuraraine chloride],170%
3,CC1CCN(CCCC(=O)c2ccc(F)cc2)CC1 [melperone],329%
4,CCCCCCCC/C=C\CCCCCCCC(=O)O.NCCO,129%
5,CC(C)(C)NCC(O)COc1cc(Cl)ccc1Cl (stereo not given) [cloranolol],270%
6,COc1cccc(N(C)C(=S)Oc2ccc3c(c2)CCCC3)n1 [liranaftate],212%
7,CCCCCCCCCCCCOCCCN [laurixamine],132%
8,CNCC(O)c1ccc(O)c(O)c1 [L-(+)-Epinephrine tartrate],269%
9,CC(C)OC(=O)Nc1ccc2[nH]c(-c3cscn3)nc2c1 [cambendazole],47%
10,CC[C@@H]1/C=C(\C)C[C@H](C)C[C@H](OC)[C@H]2O[C@@](O)(C(=O)C(=O)N3CCCC[C@H]3C(=O)O[C@H](/C(C)=C/[C@@H]3CC[C@H](Cl)[C@H](OC)C3)[C@H](C)[C@@H](O)CC1=O)[C@H](C)C[C@@H]2OC [Pimecrolimus],283%
11,OC[C@H]1O[C@H](O[C@H]2[C@H](O)[C@@H](O)C(O)O[C@@H]2CO)[C@H](O)[C@@H](O)[C@@H]1O (stereo not given in full),331%
12,CCCCOc1ccc(CC(=O)NO)cc1 [bufexamac],126%
13,Cc1[nH]c(=O)c(C#N)cc1-c1ccc2nccn2c1 [olprinone],274%
14,COC(=O)C1=C(C)NC(C)=C(C(=O)OCCN2CCN(C(c3ccccc3)c3ccccc3)CC2)C1c1cccc([N+](=O)[O-])c1 (stereo not given) [manidipine],160% and 219%
15,CNC(=O)[C@@H](NC(=O)[C@H](CC(C)C)[C@H](O)C(=O)NO)C(C)(C)C [marimastat],145%
16,CC1CC(OC(=O)C(O)c2ccccc2)CC(C)(C)N1C (stereo not given),131%
17,CC(=O)Oc1ccccc1C(=O)Nc1ncc([N+](=O)[O-])s1 [nitazoxanide],463%
18,CCC(C)C(C)C1Nc2cc(Cl)c(S(N)(=O)=O)cc2S(=O)(=O)N1 (stereo not given) [mebutizide],216%
19,O=S(=O)(O)c1cc(I)c(O)c2ncccc12 [chiniofon],94.4%
20,Cc1cccc(C)c1NC(=O)CN1CCCCCC1 [pincainide],122%

row,Structure (SMILES),percent viability
1,CC(O)C(=O)O.N (stereo not given),156%
2,CCCCC(O)c1ccccc1 (stereo not given) [fenipentol],342%
3,C[C@@H](O)[C@H]1C(=O)N2C(C(=O)O)=C(SCCN=CN)C[C@H]12,163%
4,NC(=O)CCC/N=C(\c1ccc(Cl)cc1)c1cc(F)ccc1O [progabide],303%
5,C[C@@H]1C(=O)O[C@H]2C[C@@]34[C@H]5C[C@@H](C(C)(C)C)[C@]36[C@@H](OC(=O)[C@@H]6O)O[C@@]4(C(=O)O5)[C@]21O [Ginkgolide A],130%
6,COC(=O)Nc1nc2cc(C(=O)c3ccccc3)ccc2[nH]1,19.3%
7,O=c1[nH]c(=O)n([C@H]2C[C@H](O)[C@@H](CO)O2)cc1/C=C/Br [brivudine],139%
8,O=C(OCC(O)CO)c1ccccc1Nc1ccnc2cc(Cl)ccc12 (stereo not given) [glafenine],235%
9,CCOc1c(N2CCOCC2)cnn(C)c1=O [emorfazone],192%
10,CN(C)C(=O)C(CC[N@+]1([O-])CC[C@@](O)(c2ccc(Cl)cc2)CC1)(c1ccccc1)c1ccccc1 [loperamide oxide],165%
11,CCCCCC(C)NCc1c(C)cc(C)cc1C (stereo not given) [trimexiline],190%
12,NCCc1cc[nH]n1,121%
13,O=c1[nH]c(=O)n([C@H]2C[C@H](O)[C@@H](CO)O2)cc1C(F)(F)F [trifluridine],231% and 153%
14,COc1c2occc2cc2ccc(=O)oc12,103%
15,CCC1C(=O)NC(=O)C1(C)c1ccccc1 (stereo not given) [fenimide],98.8%
16,CC(C)N1CCN(c2ccc(OCC3COC(Cn4cncn4)(c4ccc(Cl)cc4Cl)O3)cc2)CC1 (stereo not given) [terconazole],95.7%
17,CC1(C)[C@@H](OC(=O)CCC(=O)O)CC[C@]2(C)[C@H]3C(=O)C=C4[C@@H]5C[C@@](C)(C(=O)O)CC[C@]5(C)CC[C@@]4(C)[C@]3(C)CC[C@@H]12,96.2%
18,CC1(C)O[C@@H]2C[C@H]3[C@@H]4CCC5=CC(=O)C=C[C@]5(C)[C@@]4(F)[C@@H](O)C[C@]3(C)[C@]2(C(=O)CO)O1,140%
19,CCCn1c(=O)[nH]c(=O)c2nc[nH]c21 [enprofylline],325%
20,O=C(O)CCCC[C@@H]1SC[C@@H]2NC(=O)N[C@@H]21 [biotin],185% and 260%

# Arranged by molar mass (low to high): three of the compounds above.
row,Structure (SMILES),percent viability
7,O=c1[nH]c(=O)n([C@H]2C[C@H](O)[C@@H](CO)O2)cc1/C=C/Br [brivudine],139%
17,CC1(C)[C@@H](OC(=O)CCC(=O)O)CC[C@]2(C)[C@H]3C(=O)C=C4[C@@H]5C[C@@](C)(C(=O)O)CC[C@]5(C)CC[C@@]4(C)[C@]3(C)CC[C@@H]12,96.2%
10,CC[C@@H]1/C=C(\C)C[C@H](C)C[C@H](OC)[C@H]2O[C@@](O)(C(=O)C(=O)N3CCCC[C@H]3C(=O)O[C@H](/C(C)=C/[C@@H]3CC[C@H](Cl)[C@H](OC)C3)[C@H](C)[C@@H](O)CC1=O)[C@H](C)C[C@@H]2OC [Pimecrolimus],283%
